Reference: paper PMC2790443
No constants are given. Whether binding was seen depends on the method and setting. In cells and extracts the contact can be indirect. Some results given as binding are weak or reduced against the parent protein; the word gives no strength. Tags and fused reporters may be left off the sequences shown.

The chains behind the UniProt entries cited, without tags or fusion partners. Residues count along the entry.
UniProt P56480, residues 47-529: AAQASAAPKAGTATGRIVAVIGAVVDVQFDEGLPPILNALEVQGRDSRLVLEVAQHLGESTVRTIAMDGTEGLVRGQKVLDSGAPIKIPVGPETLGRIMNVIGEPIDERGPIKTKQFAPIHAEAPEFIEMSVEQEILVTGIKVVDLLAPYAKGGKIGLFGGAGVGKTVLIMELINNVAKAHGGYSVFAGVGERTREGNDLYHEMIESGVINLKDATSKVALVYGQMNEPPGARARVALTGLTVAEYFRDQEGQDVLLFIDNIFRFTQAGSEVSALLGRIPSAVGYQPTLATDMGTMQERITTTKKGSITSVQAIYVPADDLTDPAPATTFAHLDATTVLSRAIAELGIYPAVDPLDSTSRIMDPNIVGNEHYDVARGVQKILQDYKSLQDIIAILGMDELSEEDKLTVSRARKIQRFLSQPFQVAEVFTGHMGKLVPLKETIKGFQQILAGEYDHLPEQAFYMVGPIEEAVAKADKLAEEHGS
UniProt Q03265, residues 44-553: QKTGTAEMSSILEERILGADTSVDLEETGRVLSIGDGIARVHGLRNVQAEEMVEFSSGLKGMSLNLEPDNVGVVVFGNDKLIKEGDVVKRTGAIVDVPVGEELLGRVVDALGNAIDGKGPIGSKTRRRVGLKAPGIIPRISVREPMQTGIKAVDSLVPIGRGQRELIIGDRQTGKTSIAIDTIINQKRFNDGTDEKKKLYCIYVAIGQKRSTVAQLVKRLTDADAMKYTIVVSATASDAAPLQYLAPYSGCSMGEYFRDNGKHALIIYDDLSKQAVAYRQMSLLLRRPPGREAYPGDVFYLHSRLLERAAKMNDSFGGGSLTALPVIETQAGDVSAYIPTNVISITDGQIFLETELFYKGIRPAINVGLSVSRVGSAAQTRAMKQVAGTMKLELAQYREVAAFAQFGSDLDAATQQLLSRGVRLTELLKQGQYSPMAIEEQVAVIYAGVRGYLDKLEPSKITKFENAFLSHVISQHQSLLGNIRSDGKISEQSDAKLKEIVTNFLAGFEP
UniProt Q9UBY8: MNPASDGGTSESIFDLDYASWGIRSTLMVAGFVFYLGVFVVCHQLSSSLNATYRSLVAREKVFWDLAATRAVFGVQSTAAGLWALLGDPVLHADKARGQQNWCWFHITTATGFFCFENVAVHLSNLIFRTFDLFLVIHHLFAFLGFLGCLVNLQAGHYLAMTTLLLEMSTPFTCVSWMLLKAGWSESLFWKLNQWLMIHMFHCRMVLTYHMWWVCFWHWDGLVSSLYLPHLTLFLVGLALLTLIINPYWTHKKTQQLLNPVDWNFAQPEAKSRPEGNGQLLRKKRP

T1: GST-hPPT1_(28-306) (human) (UniProt P50897)
T1 sequence: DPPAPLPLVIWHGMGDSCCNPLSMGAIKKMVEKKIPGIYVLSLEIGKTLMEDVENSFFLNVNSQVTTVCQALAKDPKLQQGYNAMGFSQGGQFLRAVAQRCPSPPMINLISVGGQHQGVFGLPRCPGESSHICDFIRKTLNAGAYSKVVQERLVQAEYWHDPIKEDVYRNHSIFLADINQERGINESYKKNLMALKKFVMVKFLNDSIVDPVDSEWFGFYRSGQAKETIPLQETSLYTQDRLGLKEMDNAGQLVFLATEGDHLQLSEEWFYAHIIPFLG

T2: GST-mCLN5 (mouse CLN5 lacking the signal sequence, aa 26-341, with N-terminal GST) (mouse) (UniProt Q3UMW8)
T2 sequence: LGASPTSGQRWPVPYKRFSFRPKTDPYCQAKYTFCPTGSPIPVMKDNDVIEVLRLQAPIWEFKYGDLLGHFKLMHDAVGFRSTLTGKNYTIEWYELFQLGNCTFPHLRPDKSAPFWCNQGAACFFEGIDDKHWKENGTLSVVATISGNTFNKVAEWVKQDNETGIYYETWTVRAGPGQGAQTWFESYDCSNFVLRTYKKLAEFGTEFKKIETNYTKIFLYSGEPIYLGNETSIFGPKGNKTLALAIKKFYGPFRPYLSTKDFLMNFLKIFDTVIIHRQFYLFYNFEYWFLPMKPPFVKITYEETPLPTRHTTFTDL


Tests used:
[1] = molecular target: T1, GST-hPPT1_(28-306) (human); test: pull-down; GST fusion proteins (GST-mCLN5, GST-hPPT1) incubated over night at 4°C with 1 ml (2.5 mg/ml) of enriched lysosomal/mitochondrial fraction of liver of wt, Cln1-/- or Cln5-/- mice; EB buffer 100 mM NaCl, 50 mM HEPES pH 7.4, 5 mM MgCl2, 0.5% Triton X-100; blot for α- and β-subunits; only the target purified
[2] = molecular target: T2, GST-mCLN5 (mouse CLN5 lacking the signal sequence, aa 26-341, with N-terminal GST) (mouse); test: as above
[3] = molecular target: T2, GST-mCLN5 (mouse CLN5 lacking the signal sequence, aa 26-341, with N-terminal GST) (mouse); test: pull-down; GST-mCLN5 on glutathione-Sepharose 4B beads incubated with COS-1 lysates (~2 mg/ml; transfected or endogenous proteins) overnight at 4°C; lysis buffer 25 mM HEPES pH 7.4, 150 mM NaCl, 1 mM EDTA, 0.5% Triton X-100, 0.5 mM MgCl2; five washes; Western blot; only the target purified
[4] = molecular target: T2, GST-mCLN5 (mouse CLN5 lacking the signal sequence, aa 26-341, with N-terminal GST) (mouse); test: pull-down; GST-mCLN5 used to pull down endogenous NCL proteins from mouse brain extract; Western blot; only the target purified
[5] = molecular target: T2, GST-mCLN5 (mouse CLN5 lacking the signal sequence, aa 26-341, with N-terminal GST) (mouse); test: pull-down; GST-mCLN5 used to pull down endogenous NCL proteins from HeLa cell lysates; Western blot; only the target purified

Molecule | binding [3] | binding [4] | also measured
β-subunit of the mitochondrial ATP synthase (F1-complex), endogenous in mouse liver (from UniProt P56480 47-529) | – | – | binding [1]: binds; binding [2]: binds
α-subunit of the mitochondrial ATP synthase (F1-complex), endogenous in mouse liver (from UniProt Q03265 44-553) | – | – | binding [1]: binds; binding [2]: binds
PPT1/CLN1, endogenous in mouse brain (enzyme, UniProt O88531 28-306) DPPSPPPLVIWHGMGDSCCNPMSMGVIKKMVEKEIPGIYVLSLEIGKNMMEDVENSFFLNVNVQVNMVCQILEKDPKLQQGYNAIGFSQGGQFLRAVAQRCPTPPMMTLISVGGQHQGVFGLPRCPGESSHICDFIRKSLNAGAYSKLVQERLVQAQYWHDPIKESVYRNYSIFLADINQERCVNESYKKNLMALKKFVMVKFFNDSIVDPVDSEWFGFYRSGQAKETIPLQESTLYTEDRLGLKKMDKAGKLVFLAKEGDHLQISKEWFTAHIIPFLK | – | binds | –
CLN3, endogenous in mouse brain (protein, UniProt Q61124 1-438) MGSSAGSWRRLEDSEREETDSEPQAPRLDSRSVLWKNAVGFWILGLCNNFSYVVMLSAAHDILKQEQASGNQSHVEPGPTPTPHNSSSRFDCNSISTAAVLLADILPTLVIKLLAPLGLHLLPYSPRVLVSGVCSAGSFVLVAFSQSVGLSLCGVVLASISSGLGEVTFLSLTAFYPSAVISWWSSGTGGAGLLGSLSYLGLTQAGLSPQHTLLSMLGIPVLLLASYFLLLTSPEPLDPGGENEAETAARQPLIGTETPESKPGASWDLSLQERWTVFKGLLWYIIPLVLVYFAEYFINQGLFELLFFRNTSLSHAQQYRWYQMLYQAGVFASRSSLQCCRIRFTWVLALLQCLNLALLLADVCLNFLPSIYLIFIIILYEGLLGGAAYVNTFHNIALETSDKHREFAMEAACISDTLGISLSGVLALPLHDFLCHLP | – | binds | –
CLN6, endogenous in HeLa cells (protein, UniProt Q9NWW5 1-311) MEATRRRQHLGATGGPGAQLGASFLQARHGSVSADEAARTAPFHLDLWFYFTLQNWVLDFGRPIAMLVFPLEWFPLNKPSVGDYFHMAYNVITPFLLLKLIERSPRTLPRSITYVSIIIFIMGASIHLVGDSVNHRLLFSGYQHHLSVRENPIIKNLKPETLIDSFELLYYYDEYLGHCMWYIPFFLILFMYFSGCFTASKAESLIPGPALLLVAPSGLYYWYLVTEGQIFILFIFTFFAMLALVLHQKRKRLFLDSNGLFLFSSFALTLLLVALWVAWLWNDPVLRKKYPGVIYVPEPWAFYTLHVSSRH | – | – | binding [5]: binds
CLN6-c-myc, overexpressed in COS-1 cells (protein, UniProt Q9NWW5 1-311) MEATRRRQHLGATGGPGAQLGASFLQARHGSVSADEAARTAPFHLDLWFYFTLQNWVLDFGRPIAMLVFPLEWFPLNKPSVGDYFHMAYNVITPFLLLKLIERSPRTLPRSITYVSIIIFIMGASIHLVGDSVNHRLLFSGYQHHLSVRENPIIKNLKPETLIDSFELLYYYDEYLGHCMWYIPFFLILFMYFSGCFTASKAESLIPGPALLLVAPSGLYYWYLVTEGQIFILFIFTFFAMLALVLHQKRKRLFLDSNGLFLFSSFALTLLLVALWVAWLWNDPVLRKKYPGVIYVPEPWAFYTLHVSSRH | binds | – | –
CLN3, endogenous in HeLa cells (protein, UniProt Q13286 1-438) MGGCAGSRRRFSDSEGEETVPEPRLPLLDHQGAHWKNAVGFWLLGLCNNFSYVVMLSAAHDILSHKRTSGNQSHVDPGPTPIPHNSSSRFDCNSVSTAAVLLADILPTLVIKLLAPLGLHLLPYSPRVLVSGICAAGSFVLVAFSHSVGTSLCGVVFASISSGLGEVTFLSLTAFYPRAVISWWSSGTGGAGLLGALSYLGLTQAGLSPQQTLLSMLGIPALLLASYFLLLTSPEAQDPGGEEEAESAARQPLIRTEAPESKPGSSSSLSLRERWTVFKGLLWYIVPLVVVYFAEYFINQGLFELLFFWNTSLSHAQQYRWYQMLYQAGVFASRSSLRCCRIRFTWALALLQCLNLVFLLADVWFGFLPSIYLVFLIILYEGLLGGAAYVNTFHNIALETSDEHREFAMAATCISDTLGISLSGLLALPLHDFLCQLS | – | – | binding [5]: binds

Second part, led by results:

binding [3] | binding [4] | Molecule | also measured
binds | – | CLN8-HA, overexpressed in COS-1 cells (from UniProt Q9UBY8 1-286) | –
– | binds | CLN6, endogenous in mouse brain (protein, UniProt Q3U466 1-308) MEAATRRRQLLGAAGGPGVAFVQARHGSVKAEDKDRTAPFHLDLWFYFTLQNWVLDFGRPIAMLVFPIQWFPLNKPSVGDYFHMTYNIITPFLLLKLIERSPRTLPRSIVYVSIITFIMGASIHLVGDSVNHRLLFSGYQHHLSVRENPIIKNLKPETLIDSFELLYYYDEYLGHCMWYIPFFLILFMYFSGCFTTCKAESHMPGPALLLVVPSGLYYWYLVTEGQIFILFIFTFFAMLALVLHQKRRRLFLDSNGLFLLYSFALTLSLVALWVAWLWNDPVLRKKYPGVIYVPEPWAFYTLHVSSQQ | –
binds | – | CLN3, overexpressed in COS-1 cells (protein, UniProt Q13286 1-438) MGGCAGSRRRFSDSEGEETVPEPRLPLLDHQGAHWKNAVGFWLLGLCNNFSYVVMLSAAHDILSHKRTSGNQSHVDPGPTPIPHNSSSRFDCNSVSTAAVLLADILPTLVIKLLAPLGLHLLPYSPRVLVSGICAAGSFVLVAFSHSVGTSLCGVVFASISSGLGEVTFLSLTAFYPRAVISWWSSGTGGAGLLGALSYLGLTQAGLSPQQTLLSMLGIPALLLASYFLLLTSPEAQDPGGEEEAESAARQPLIRTEAPESKPGSSSSLSLRERWTVFKGLLWYIVPLVVVYFAEYFINQGLFELLFFWNTSLSHAQQYRWYQMLYQAGVFASRSSLRCCRIRFTWALALLQCLNLVFLLADVWFGFLPSIYLVFLIILYEGLLGGAAYVNTFHNIALETSDEHREFAMAATCISDTLGISLSGLLALPLHDFLCQLS | –
